# Source: the supplement of paper PMC10849652
# Amino acid sequences for entries named in this document (tags omitted). A change or cut given only in a name is not applied to a line headed by its entry.
# UniProt P41236: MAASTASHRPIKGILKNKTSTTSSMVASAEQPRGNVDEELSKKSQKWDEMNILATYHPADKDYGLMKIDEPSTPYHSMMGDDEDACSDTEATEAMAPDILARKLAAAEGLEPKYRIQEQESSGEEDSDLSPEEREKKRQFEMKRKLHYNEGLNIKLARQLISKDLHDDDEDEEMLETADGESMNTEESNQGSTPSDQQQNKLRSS
# UniProt Q14738, whole entry, looked up: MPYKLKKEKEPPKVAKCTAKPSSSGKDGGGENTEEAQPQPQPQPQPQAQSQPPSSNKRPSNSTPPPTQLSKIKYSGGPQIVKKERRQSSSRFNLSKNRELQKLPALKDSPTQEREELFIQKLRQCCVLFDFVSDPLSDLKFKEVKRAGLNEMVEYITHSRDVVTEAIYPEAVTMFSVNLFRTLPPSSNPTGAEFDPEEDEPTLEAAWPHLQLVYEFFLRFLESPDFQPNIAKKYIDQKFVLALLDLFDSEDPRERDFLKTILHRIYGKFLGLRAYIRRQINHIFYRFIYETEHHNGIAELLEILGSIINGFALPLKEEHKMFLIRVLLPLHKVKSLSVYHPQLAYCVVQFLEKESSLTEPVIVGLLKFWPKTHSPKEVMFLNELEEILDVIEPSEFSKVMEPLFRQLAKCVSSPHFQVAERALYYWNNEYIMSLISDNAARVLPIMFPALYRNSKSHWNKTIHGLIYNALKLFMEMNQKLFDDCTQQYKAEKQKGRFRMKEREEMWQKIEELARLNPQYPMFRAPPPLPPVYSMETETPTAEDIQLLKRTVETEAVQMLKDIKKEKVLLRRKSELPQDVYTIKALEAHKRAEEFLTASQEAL
# UniProt Q9Y478: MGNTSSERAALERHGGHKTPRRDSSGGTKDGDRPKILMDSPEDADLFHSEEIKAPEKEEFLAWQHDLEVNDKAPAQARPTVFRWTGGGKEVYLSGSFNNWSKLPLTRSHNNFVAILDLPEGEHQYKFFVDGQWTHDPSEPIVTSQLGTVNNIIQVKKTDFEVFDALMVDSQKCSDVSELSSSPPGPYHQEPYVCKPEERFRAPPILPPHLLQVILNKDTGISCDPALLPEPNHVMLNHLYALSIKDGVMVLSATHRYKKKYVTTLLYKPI
# UniProt Q6P2P2: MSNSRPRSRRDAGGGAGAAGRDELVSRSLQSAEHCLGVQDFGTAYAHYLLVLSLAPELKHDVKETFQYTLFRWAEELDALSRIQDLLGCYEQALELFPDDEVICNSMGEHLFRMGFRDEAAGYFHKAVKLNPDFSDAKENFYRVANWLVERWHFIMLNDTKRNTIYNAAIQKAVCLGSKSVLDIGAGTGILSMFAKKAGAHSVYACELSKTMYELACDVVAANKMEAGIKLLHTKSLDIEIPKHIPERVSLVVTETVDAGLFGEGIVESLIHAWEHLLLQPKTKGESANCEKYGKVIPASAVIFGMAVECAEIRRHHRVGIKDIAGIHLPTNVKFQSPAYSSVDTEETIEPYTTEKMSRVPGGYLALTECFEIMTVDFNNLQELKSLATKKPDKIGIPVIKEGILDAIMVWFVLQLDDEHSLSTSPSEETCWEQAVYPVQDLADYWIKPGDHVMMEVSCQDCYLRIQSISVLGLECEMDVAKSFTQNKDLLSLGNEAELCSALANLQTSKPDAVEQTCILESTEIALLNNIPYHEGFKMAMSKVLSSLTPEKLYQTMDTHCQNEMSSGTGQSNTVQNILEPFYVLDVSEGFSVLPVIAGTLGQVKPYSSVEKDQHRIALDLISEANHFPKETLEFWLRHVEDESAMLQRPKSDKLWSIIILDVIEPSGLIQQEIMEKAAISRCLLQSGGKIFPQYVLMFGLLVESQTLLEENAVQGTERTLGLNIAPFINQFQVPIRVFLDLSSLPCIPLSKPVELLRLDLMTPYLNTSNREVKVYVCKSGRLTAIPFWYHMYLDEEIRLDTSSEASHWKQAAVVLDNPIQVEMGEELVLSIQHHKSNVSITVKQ
# UniProt Q13362, whole entry, looked up: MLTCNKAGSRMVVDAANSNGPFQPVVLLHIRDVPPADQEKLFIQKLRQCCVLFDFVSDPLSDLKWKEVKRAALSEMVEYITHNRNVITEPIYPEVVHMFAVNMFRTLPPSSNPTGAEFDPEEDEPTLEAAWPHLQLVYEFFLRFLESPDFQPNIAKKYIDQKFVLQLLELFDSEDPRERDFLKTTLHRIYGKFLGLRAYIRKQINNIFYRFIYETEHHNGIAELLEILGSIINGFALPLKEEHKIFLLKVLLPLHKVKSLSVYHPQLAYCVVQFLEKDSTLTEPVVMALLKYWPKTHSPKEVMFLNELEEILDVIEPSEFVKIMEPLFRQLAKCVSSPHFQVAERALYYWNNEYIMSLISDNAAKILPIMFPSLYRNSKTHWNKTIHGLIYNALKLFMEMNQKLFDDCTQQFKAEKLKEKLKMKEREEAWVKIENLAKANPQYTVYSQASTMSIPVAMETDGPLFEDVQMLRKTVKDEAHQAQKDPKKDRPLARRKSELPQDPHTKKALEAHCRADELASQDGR
# UniProt O00743: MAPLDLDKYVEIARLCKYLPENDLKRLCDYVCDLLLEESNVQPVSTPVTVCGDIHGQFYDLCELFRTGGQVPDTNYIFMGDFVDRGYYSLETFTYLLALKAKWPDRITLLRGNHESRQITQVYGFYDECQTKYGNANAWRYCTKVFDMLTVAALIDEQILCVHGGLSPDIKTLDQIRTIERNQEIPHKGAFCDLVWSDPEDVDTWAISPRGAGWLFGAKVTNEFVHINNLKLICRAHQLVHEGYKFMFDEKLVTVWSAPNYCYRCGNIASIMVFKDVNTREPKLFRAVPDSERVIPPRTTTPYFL
# UniProt O14974: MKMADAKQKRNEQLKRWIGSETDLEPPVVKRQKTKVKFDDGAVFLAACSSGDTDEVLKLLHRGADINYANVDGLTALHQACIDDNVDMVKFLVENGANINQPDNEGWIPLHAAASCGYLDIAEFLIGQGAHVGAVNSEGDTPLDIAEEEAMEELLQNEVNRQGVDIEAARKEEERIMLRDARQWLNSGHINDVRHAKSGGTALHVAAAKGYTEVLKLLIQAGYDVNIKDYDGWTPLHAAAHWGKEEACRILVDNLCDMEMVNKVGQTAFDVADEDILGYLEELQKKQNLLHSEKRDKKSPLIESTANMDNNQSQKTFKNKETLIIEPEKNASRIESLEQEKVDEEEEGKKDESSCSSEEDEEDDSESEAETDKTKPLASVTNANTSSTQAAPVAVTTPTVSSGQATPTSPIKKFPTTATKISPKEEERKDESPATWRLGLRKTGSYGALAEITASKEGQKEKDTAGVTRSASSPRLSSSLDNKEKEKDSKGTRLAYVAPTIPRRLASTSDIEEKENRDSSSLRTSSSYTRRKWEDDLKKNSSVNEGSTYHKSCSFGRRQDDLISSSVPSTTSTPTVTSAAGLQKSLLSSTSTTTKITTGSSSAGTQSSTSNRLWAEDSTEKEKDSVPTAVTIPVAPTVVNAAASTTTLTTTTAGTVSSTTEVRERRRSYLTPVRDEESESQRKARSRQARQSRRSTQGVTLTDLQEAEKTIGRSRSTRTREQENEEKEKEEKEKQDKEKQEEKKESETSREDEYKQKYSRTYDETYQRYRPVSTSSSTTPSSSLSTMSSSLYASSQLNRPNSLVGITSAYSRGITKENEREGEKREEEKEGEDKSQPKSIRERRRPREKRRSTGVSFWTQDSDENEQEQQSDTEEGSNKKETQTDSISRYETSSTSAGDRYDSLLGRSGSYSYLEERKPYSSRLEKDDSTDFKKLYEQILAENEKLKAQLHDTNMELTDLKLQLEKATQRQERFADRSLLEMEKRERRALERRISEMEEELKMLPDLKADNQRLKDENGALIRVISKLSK
# UniProt P62714, whole entry, looked up: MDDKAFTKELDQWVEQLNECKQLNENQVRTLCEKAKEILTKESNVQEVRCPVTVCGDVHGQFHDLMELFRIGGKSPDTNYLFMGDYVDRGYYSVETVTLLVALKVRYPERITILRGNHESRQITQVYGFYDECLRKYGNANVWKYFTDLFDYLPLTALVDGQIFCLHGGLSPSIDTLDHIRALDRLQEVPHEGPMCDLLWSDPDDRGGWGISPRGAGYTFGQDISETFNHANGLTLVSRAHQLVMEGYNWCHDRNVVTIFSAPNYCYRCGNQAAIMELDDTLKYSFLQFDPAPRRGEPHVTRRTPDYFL
# UniProt P53041: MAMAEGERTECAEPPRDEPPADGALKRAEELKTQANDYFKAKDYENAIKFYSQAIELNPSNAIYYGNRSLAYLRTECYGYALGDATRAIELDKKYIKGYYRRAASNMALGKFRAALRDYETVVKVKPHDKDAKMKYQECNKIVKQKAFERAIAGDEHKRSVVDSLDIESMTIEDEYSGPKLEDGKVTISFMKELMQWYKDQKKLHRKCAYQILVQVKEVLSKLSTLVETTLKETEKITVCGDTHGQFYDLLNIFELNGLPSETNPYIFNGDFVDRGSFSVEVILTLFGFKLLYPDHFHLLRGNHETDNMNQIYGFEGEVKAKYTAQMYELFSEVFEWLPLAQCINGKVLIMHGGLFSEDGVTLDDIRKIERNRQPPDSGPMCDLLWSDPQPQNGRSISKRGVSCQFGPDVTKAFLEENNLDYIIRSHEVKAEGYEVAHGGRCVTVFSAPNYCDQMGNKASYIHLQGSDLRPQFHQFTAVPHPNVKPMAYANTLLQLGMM
# UniProt P30044: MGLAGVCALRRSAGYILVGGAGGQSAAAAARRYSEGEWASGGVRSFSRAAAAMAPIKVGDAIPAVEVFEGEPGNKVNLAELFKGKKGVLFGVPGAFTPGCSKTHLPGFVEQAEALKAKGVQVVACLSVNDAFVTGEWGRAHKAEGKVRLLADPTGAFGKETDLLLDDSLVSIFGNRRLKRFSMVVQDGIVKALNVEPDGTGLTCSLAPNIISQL
# UniProt Q15435: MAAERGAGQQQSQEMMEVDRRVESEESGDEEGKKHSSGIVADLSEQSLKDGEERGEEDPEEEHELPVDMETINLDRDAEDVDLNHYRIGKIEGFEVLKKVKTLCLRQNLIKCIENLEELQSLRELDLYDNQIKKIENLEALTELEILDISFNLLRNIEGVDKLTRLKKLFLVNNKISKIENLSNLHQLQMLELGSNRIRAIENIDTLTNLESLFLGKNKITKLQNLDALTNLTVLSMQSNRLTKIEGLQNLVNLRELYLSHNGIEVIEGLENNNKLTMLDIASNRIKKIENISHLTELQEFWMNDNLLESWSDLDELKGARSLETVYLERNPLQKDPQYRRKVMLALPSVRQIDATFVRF
# UniProt P50897: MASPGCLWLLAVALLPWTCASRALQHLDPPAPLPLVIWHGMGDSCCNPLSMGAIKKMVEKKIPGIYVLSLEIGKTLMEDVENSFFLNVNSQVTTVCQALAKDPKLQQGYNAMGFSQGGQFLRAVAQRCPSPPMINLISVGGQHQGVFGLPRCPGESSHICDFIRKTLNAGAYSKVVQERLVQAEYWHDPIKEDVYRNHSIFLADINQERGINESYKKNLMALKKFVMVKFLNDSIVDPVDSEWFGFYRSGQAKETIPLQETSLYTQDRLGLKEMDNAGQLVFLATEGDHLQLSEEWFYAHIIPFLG
# UniProt Q8TAP8: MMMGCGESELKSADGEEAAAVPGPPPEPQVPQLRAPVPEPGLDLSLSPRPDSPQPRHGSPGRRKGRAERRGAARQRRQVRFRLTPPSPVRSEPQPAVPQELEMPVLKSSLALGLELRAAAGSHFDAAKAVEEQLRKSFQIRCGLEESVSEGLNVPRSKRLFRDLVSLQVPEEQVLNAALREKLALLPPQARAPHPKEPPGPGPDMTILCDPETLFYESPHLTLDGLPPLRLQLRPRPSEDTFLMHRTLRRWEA
# UniProt Q13131: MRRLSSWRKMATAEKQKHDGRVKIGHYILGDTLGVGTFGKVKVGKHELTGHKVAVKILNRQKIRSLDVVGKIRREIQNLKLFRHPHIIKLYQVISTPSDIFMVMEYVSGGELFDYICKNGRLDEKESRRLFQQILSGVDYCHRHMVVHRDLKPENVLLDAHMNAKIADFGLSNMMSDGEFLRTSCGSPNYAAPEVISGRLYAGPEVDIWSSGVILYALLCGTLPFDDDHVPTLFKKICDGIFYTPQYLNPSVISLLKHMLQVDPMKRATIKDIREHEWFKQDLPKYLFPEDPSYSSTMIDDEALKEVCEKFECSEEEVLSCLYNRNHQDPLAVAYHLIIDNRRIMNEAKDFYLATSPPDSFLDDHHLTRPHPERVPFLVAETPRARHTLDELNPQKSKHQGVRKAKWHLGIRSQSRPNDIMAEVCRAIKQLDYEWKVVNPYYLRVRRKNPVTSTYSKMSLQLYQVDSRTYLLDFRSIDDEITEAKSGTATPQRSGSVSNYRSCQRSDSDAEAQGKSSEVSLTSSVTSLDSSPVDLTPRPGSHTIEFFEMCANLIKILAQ
# UniProt P11908: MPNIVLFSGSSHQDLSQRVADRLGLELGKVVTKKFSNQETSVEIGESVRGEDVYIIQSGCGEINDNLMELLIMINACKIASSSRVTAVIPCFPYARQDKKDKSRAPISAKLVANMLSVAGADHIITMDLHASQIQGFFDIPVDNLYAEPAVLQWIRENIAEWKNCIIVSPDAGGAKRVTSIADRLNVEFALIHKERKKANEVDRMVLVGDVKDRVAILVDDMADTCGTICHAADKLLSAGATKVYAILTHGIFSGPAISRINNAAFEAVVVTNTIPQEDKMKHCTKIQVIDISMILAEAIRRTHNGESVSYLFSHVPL
# The list shows a part of the results.
# Assays:
# Assay in all cases: log2 fold change, soluble protein after heating vs DMSO (PISA); higher = thermal stabilisation; K562 cells, 10 uM, 30 min; active = over 0.2 and 3.5 SD of the protein, either way, in both replicates (recomputed)
# bafetinib = compound: Cc1ccc(NC(=O)c2ccc(CN3CC[C@H](N(C)C)C3)c(C(F)(F)F)c2)cc1Nc1nccc(-c2cncnc2)n1 [bafetinib]
# Summary of the method: (§1)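 K562 cells (2×10^6 cells/mL) were treated with 10 μM compound for 30 min, and aliquots were heated for 3 min over 48°C-58°C. Pooled aliquots were extracted in PBS with 0.5% NP-40 at 4°C, and the supernatant after 21,000xg for 90 min was measured by TMTpro 16plex LC-MS/MS with channel sums equalised. Reported thermal stability, relative to control samples and from duplicates, is a log2 fold change.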
# [1] = compound: Cc1cccc(CC(=O)N2CCc3c2ccc(-c2cn(C)c4ncnc(N)c24)c3F)n1
# Summary of the method: as §1
# nilotinib = compound: Cc1cn(-c2cc(NC(=O)c3ccc(C)c(Nc4nccc(-c5cccnc5)n4)c3)cc(C(F)(F)F)c2)cn1 [nilotinib]
# Summary of the method: as §1
# [2] = compound: Cc1nc(Nc2n[nH]c3c2CN(C(=O)N[C@H](CN(C)C)c2ccccc2)C3(C)C)c2sccc2n1
# Summary of the method: as §1
# dasatinib = compound: Cc1nc(Nc2ncc(C(=O)Nc3c(C)cccc3Cl)s2)cc(N2CCN(CCO)CC2)n1 [dasatinib]
# Summary of the method: as §1
# [3] = compound: Cc1ncc(-c2ccnc(Nc3ccc(S(C)(=O)=O)cc3)n2)n1C(C)C
# Summary of the method: as §1
# [4] = compound: Cn1cc(-c2ccc3c(c2)CCN3C(=O)Cc2cccc(C(F)(F)F)c2)c2c(N)ncnc21
# Summary of the method: as §1
# [5] = compound: Cn1cc(-c2ccc3nnc(C(F)(F)c4ccc5ncccc5c4)n3n2)cn1
# Summary of the method: as §1
# tipifarnib = compound: Cn1cncc1[C@@](N)(c1ccc(Cl)cc1)c1ccc2c(c1)c(-c1cccc(Cl)c1)cc(=O)n2C [tipifarnib]
# Summary of the method: as §1
# mubritinib = compound: FC(F)(F)c1ccc(/C=C/c2nc(COc3ccc(CCCCn4ccnn4)cc3)co2)cc1 [mubritinib]
# Summary of the method: as §1
# [6] = compound: NC(=O)Nc1cc(-c2cccc(F)c2)sc1C(=O)N[C@H]1CCCNC1
# Summary of the method: as §1
# [7] = compound: NC(=O)c1cnc(N[C@@H]2CCCC[C@@H]2N)nc1Nc1cccc(-n2nccn2)c1
# Summary of the method: as §1
# [8] = compound: NC1(c2ccc(-c3nc4ccn5c(=O)[nH]nc5c4cc3-c3ccccc3)cc2)CCC1
# Summary of the method: as §1
# [9] = compound: NCC(=O)Nc1ccc(-n2nc(C(F)(F)F)cc2-c2ccc3c(ccc4ccccc43)c2)cc1
# Summary of the method: as §1
# entinostat = compound: Nc1ccccc1NC(=O)c1ccc(CNC(=O)OCc2cccnc2)cc1 [entinostat]
# Summary of the method: as §1
# vorinostat = compound: O=C(CCCCCCC(=O)Nc1ccccc1)NO [vorinostat]
# Summary of the method: as §1
# citarinostat = compound: O=C(CCCCCCNC(=O)c1cnc(N(c2ccccc2)c2ccccc2Cl)nc1)NO [citarinostat]
# Summary of the method: as §1
# silmitasertib = compound: O=C(O)c1ccc2c(c1)nc(Nc1cccc(Cl)c1)c1ccncc12 [silmitasertib]
# Summary of the method: as §1
# [10] = compound: O=C1NC(=O)C(c2cnc3ccccn23)=C1c1cn2c3c(cc(F)cc13)CN(C(=O)N1CCCCC1)CC2
# Summary of the method: as §1
# [11] = compound: c1cc(OCCN2CCCCC2)cc(-c2n[nH]c3ccc(-c4nnc[nH]4)cc23)c1
# Summary of the method: as §1
Target,log2 fold change (bafetinib),log2 fold change [1],log2 fold change (nilotinib),log2 fold change [2],log2 fold change (dasatinib),log2 fold change [3],log2 fold change [4],log2 fold change [5],log2 fold change (tipifarnib),log2 fold change (mubritinib),log2 fold change [6],log2 fold change [7],log2 fold change [8],log2 fold change [9],log2 fold change (entinostat),log2 fold change (vorinostat),log2 fold change (citarinostat),log2 fold change (silmitasertib),log2 fold change [10],log2 fold change [11]
PPP1R2 (UniProt P41236),inactive: -0.049,inactive: -0.034,inactive: 0.03,inactive: 0.014,inactive: 0.034,inactive: 0.006,inactive: -0.003,inactive: 0.036,inactive: 0.007,inactive: 0.024,inactive: 0.028,inactive: 0.009,inactive: 0.054,inactive: 0.006,inactive: 0,inactive: -0.049,inactive: -0.009,inactive: -0.013,inactive: -0.044,inactive: -0.032
PPP2R5D (UniProt Q14738),inactive: 0.013,inactive: 0.052,inactive: -0.056,inactive: -0.005,inactive: -0.08,inactive: 0.089,inactive: -0.045,inactive: 0.025,inactive: -0.066,inactive: -0.02,inactive: 0.012,inactive: -0.004,inactive: -0.101,inactive: -0.039,inactive: 0.086,inactive: 0.129,inactive: 0.078,inactive: 0.125,inactive: -0.028,inactive: -0.061
PRKAB1 (UniProt Q9Y478),inactive: -0.154,inactive: 0.006,inactive: -0.119,inactive: -0.162,inactive: -0.037,inactive: -0.007,inactive: 0.04,inactive: -0.026,inactive: 0.008,inactive: -0.104,inactive: -0.015,inactive: 0.186,inactive: -0.015,inactive: 0.035,inactive: 0.056,inactive: 0.063,inactive: 0.089,inactive: 0,inactive: -0.036,inactive: -0.067
PRMT9 (UniProt Q6P2P2),inactive: -0.087,inactive: -0.069,inactive: -0.107,inactive: 0.036,inactive: -0.025,inactive: -0.011,inactive: 0.011,inactive: 0.004,inactive: -0.08,inactive: -0.016,inactive: 0.165,inactive: 0.02,inactive: -0.244,inactive: -0.046,inactive: -0.011,inactive: -0.02,inactive: 0.03,inactive: 0.048,inactive: 0.114,inactive: 0.069
PPP2R5C isoform 5 (UniProt Q13362),inactive: -0.024,inactive: 0.005,inactive: -0.168,inactive: -0.026,inactive: -0.227,inactive: 0.026,inactive: 0.031,inactive: -0.06,inactive: -0.099,inactive: 0.042,inactive: 0.003,inactive: 0.011,inactive: -0.134,inactive: -0.027,inactive: 0.018,inactive: -0.044,inactive: 0.169,inactive: -0.005,inactive: -0.053,inactive: -0.01
PPP6C isoform 3 (UniProt O00743),inactive: -0.054,inactive: -0.021,inactive: 0.009,inactive: -0.008,inactive: 0.064,inactive: -0.004,inactive: -0.038,inactive: 0.011,inactive: 0.014,inactive: 0.053,inactive: -0.012,inactive: -0.025,inactive: -0.033,inactive: 0.006,inactive: -0.027,inactive: -0.031,inactive: 0.009,inactive: 0.032,inactive: -0.049,inactive: -0.052
PPP1R12A (UniProt O14974),inactive: -0.041,inactive: -0.02,inactive: -0.027,inactive: -0.302,inactive: -0.108,inactive: -0.118,inactive: -0.002,inactive: 0.02,inactive: -0.023,inactive: 0.07,active: -0.428,inactive: -0.358,inactive: -0.137,inactive: -0.012,inactive: 0.041,inactive: 0.017,inactive: 0.078,inactive: 0.051,inactive: -0.01,inactive: -0.369
PPP2CB (UniProt P62714),inactive: -0.045,inactive: -0.013,inactive: 0.025,inactive: -0.021,inactive: 0.022,inactive: 0.01,inactive: 0.021,inactive: 0.024,inactive: 0.053,inactive: 0.056,inactive: -0.033,inactive: 0.027,inactive: 0.042,inactive: 0.011,inactive: -0.024,inactive: -0.047,inactive: 0.036,inactive: 0.023,inactive: -0.005,inactive: -0.01
PPP5C (UniProt P53041),inactive: -0.045,inactive: 0.013,inactive: -0.018,inactive: 0.001,inactive: -0.071,inactive: 0.053,inactive: 0.041,inactive: 0.007,inactive: -0.034,inactive: -0.018,inactive: -0.067,inactive: -0.027,inactive: -0.003,inactive: -0.002,inactive: -0.031,inactive: -0.059,inactive: 0.018,inactive: -0.001,inactive: -0.022,inactive: -0.006
PRDX5 (UniProt P30044),inactive: -0.067,inactive: -0.028,inactive: 0.036,inactive: 0.016,inactive: 0.039,inactive: -0.007,inactive: 0.045,inactive: 0.08,inactive: -0.009,inactive: 0.022,inactive: -0.014,inactive: -0.009,inactive: -0.016,inactive: -0.008,inactive: 0.014,inactive: -0.014,inactive: 0.046,inactive: -0.004,inactive: -0.029,inactive: 0.018
PPP1R7 (UniProt Q15435),inactive: -0.009,inactive: 0.014,inactive: -0.04,inactive: -0.01,inactive: -0.044,inactive: 0.045,inactive: 0.014,inactive: 0.066,inactive: -0.076,inactive: 0.081,inactive: -0.023,inactive: -0.088,inactive: -0.077,inactive: -0.032,inactive: -0.003,inactive: 0.063,inactive: -0.037,inactive: -0.041,inactive: 0.121,inactive: -0.053
PPT1 (UniProt P50897),active: -0.742,inactive: 0.011,inactive: 0.021,inactive: 0.02,inactive: 0,inactive: -0.001,inactive: 0.006,inactive: 0.019,inactive: 0.025,inactive: 0.027,inactive: -0.049,inactive: -0.095,active: -0.338,inactive: -0.096,inactive: -0.03,inactive: -0.036,inactive: 0.053,inactive: 0.019,inactive: -0.041,inactive: -0.041
PPP3CB isoform 4 (UniProt P16298),inactive: -0.064,inactive: -0.035,inactive: -0.122,inactive: 0.011,inactive: -0.083,inactive: -0.055,inactive: 0.021,inactive: 0.017,inactive: 0.017,inactive: 0.051,inactive: 0.046,inactive: -0.109,inactive: -0.097,inactive: -0.035,inactive: -0.003,inactive: 0.011,inactive: 0.017,inactive: 0.024,inactive: -0.124,inactive: -0.03
PPP1R35 (UniProt Q8TAP8),inactive: -0.039,inactive: 0.058,inactive: 0.008,inactive: -0.031,inactive: -0.04,inactive: -0.095,inactive: -0.024,inactive: -0.042,inactive: -0.022,inactive: 0.065,inactive: 0.054,inactive: -0.004,inactive: -0.037,inactive: -0.002,inactive: -0.06,inactive: -0.089,inactive: -0.058,inactive: 0.003,inactive: 0.002,inactive: -0.001
PRKAA1 isoform 2 (UniProt Q13131),inactive: -0.096,inactive: 0.035,inactive: -0.029,active: -0.206,inactive: -0.069,inactive: -0.011,inactive: 0.082,inactive: 0.028,inactive: -0.012,inactive: -0.012,inactive: -0.141,inactive: -0.009,inactive: -0.049,inactive: -0.007,inactive: 0.002,inactive: 0.052,inactive: 0.044,inactive: -0.006,inactive: -0.007,inactive: -0.056
PRPS2 isoform 2 (UniProt P11908),inactive: 0.023,inactive: 0.017,inactive: -0.01,inactive: 0.052,inactive: 0,inactive: 0.021,inactive: -0.032,inactive: 0.017,inactive: -0.008,inactive: 0.022,inactive: -0.009,inactive: 0.049,inactive: -0.034,inactive: 0,inactive: -0.03,inactive: -0.026,inactive: -0.002,inactive: -0.022,inactive: -0.054,inactive: -0.017
